Source: PubChem BioAssay AID540276 (National Center for Advancing Translational Sciences (NCATS), 2011)
In all, about 300,000 compounds went through this assay and about 5,400 (1.8%) were called active. Inconclusive results, whose numbers are uncertain, are shown with a selection of clear calls. Calls come from the whole dose curve; tested in HEK293 cells. A potency beside an inconclusive call is a rough fit, not a confirmed value.

Experiment: qHTS for inhibitors of binding or entry into cells for Marburg Virus
Details: Marburg virus pseudotyped entry inhibition, cell reporter; series mostly up to 37.8 µM
Potency is the fitted concentration of half-maximal effect.

SMILES | Potency
COC(=O)c1ccccc1OC(=O)c1cccnc1 | inconclusive: 0.517 µM [activator, full curve, poor fit]
Cc1ccc(C(C)C)c(OCC(=O)NS(=O)(=O)c2ccc(Cl)cc2)c1 | inconclusive: 14.1 µM [activator, single point]
CCCCc1ncc(CN2CCC(n3nccc3NC(=O)c3ccccc3Cl)CC2)[nH]1 | inconclusive: 17.8 µM [activator, partial curve, poor fit]
CSc1nc(N)nc2c1ncn2Cc1ccccc1 | inactive
Cc1cc(NC(=O)Cn2nc3c(cc2=O)CCCC3)ccc1Br | inactive
Cc1ccccc1CN(C)CC(=O)Nc1c(C)cccc1C(C)C | inconclusive: 11.2 µM [inhibitor, partial curve, poor fit]
CCCCN(C)C(=O)CSc1c2c(nc3ccc(Cl)cc13)CCCC2 | inconclusive: 35.5 µM [inhibitor, single point]
CCn1c(Cc2ccccc2)nnc1SCC(=O)NC1CC1 | inactive
CCOc1ccc2ccccc2c1/C=N/NC(=O)CNC(=O)c1ccccc1O | inconclusive: 4.47 µM [inhibitor, partial curve, poor fit]
CC1Cn2c(nnc2-c2ccccc2O)S1 (stereo not drawn) | inactive
CN(CC(=O)Nc1ccc(F)cc1)C(=O)COc1ccccc1Cc1ccccc1 | inconclusive: 12.6 µM [inhibitor, single point]
CC(C)[C@H](NC(=O)NCCc1ccccc1)C(=O)O | inconclusive: 25.1 µM [activator, single point]
CNC(=O)/C(=C\c1ccc2c(c1)OCO2)NC(=O)c1ccc(Br)cc1 | inactive
O=C(Nc1cccc(C(F)(F)F)c1)c1cc(S(=O)(=O)N2CCCCC2)ccc1N1CCOCC1 | inconclusive: 22.4 µM [inhibitor, single point]
Cc1[nH]c(=O)[nH]c(=O)c1Cc1cccc2ccccc12 | inactive
O=C(NCc1ccccn1)c1ccc(Cl)c(S(=O)(=O)N2CCOCC2)c1 | inconclusive: 31.6 µM [activator, single point]
COc1ccc(OC)c(S(=O)(=O)N2CCC(C(=O)Nc3ccc(C)c(C)c3)CC2)c1 | inconclusive: 29.1 µM [inhibitor, single point]
CCN(CC)S(=O)(=O)c1cccc(C(=O)N[C@H](C(=O)OCC(=O)Nc2ccccc2)C(C)C)c1 | inactive
CC1(C)CC(=O)C=C(NNC(=O)c2ccccc2O)C1 | inactive
CCc1cccc(C)c1NC(=O)c1ccc2c(c1)CCN2S(C)(=O)=O | inconclusive: 8.91 µM [inhibitor, partial curve, poor fit]
CC(C)c1cccc(C(C)C)c1OCCCCN1CCCC1 | inconclusive: 23.1 µM [inhibitor, single point]
N#C/C(=C\c1ccc(N2CCOCC2)o1)C(=O)NCC1CCCO1 (stereo not drawn) | inactive
COc1ccc(-c2c3c(nc4sc(C(=O)Nc5cccc(OC)c5)c(N)c24)CC(C)(C)CC3=O)cc1 | inconclusive: 25.1 µM [inhibitor, single point]
CCC1(c2ccc(Cl)cc2)NC(=S)N(c2ccccc2)N1 (stereo not drawn) | inconclusive: 35.5 µM [activator, single point]
COc1ccc(/C=C2\OC(=O)c3c(OC)cccc32)cc1OC | inconclusive: 0.891 µM [activator, full curve, poor fit]

SMILES | Potency
COc1ccc(Br)cc1C(=O)Nc1ccccc1N1CCN(C(=O)c2ccccc2)CC1 | inconclusive: 35.5 µM [inhibitor, single point]
Cc1cccc(-c2nc3c4ccccc4nc(N4CCN(c5cccc(Cl)c5)CC4)n3n2)c1 | inconclusive: 28.2 µM [activator, single point]
CN1CCC(O)(c2cccs2)C(C(=O)c2cccs2)C1 (stereo not drawn) | inconclusive: 3.55 µM [inhibitor, full curve, poor fit]
Cn1c(-c2c(N)n(CCc3ccccc3)c3nc4ccccc4nc23)nc2ccccc21 | inconclusive: 29.1 µM [inhibitor, single point]
O=C(NCc1cccc(Cl)c1)c1ccc(NC(=O)N2CCSc3ccccc32)cc1 | inconclusive: 3.16 µM [activator, partial curve, poor fit]
Cc1cccc(OCC(=O)NC(=S)N2CCCc3ccccc32)c1 | inactive
CCN1C(=NCc2ccc(OC)cc2)N[C@@H](CCc2ccccc2)[C@H](C(=O)NCc2ccc(OC)cc2)[C@H]1C | inconclusive: 0.0024 µM [activator, full curve, poor fit]
COc1ccc(C)cc1NC(=O)C(C)N(c1ccc(C)cc1)S(C)(=O)=O (stereo not drawn) | inactive
CCNC(=S)N1CCN(c2ccc([N+](=O)[O-])cc2)CC1 | inactive
CCOC(=O)N1C(=O)NC(=O)C1c1ccccc1 (stereo not drawn) | inactive
Cc1nc(COC(=O)c2ccc(S(=O)(=O)N3CCCC3)cc2)cs1 | inactive
Cc1ccccc1-c1nc2sc(-c3ccccc3)cc2c(=O)o1 | inactive
COc1ccc(N2CCN(C(=O)c3cn(CC4CCCCC4)nn3)CC2)cc1 | inconclusive: 2.51 µM [inhibitor, partial curve, poor fit]
COc1cccc(C(=O)N2CCN(C(=O)C3CCCO3)CC2)c1 (stereo not drawn) | inactive
CN(C)c1nc(SCc2ccc(Cl)cc2)nc2c1CCCC2 | inactive
CCOC(=O)c1sc(NC(=O)CSc2nnc(-c3ccco3)n2CC)c(C(=O)OCC)c1C | inconclusive: 32.6 µM [inhibitor, single point]
NC(=O)CCN1CCN(CCOC2Cc3cc(Cl)ccc3Sc3ccccc32)CC1 (stereo not drawn) | inconclusive: 29.1 µM [inhibitor, single point]
Cc1ccc2c(C)c(C(=O)N3CCN(c4cnccn4)CC3)oc2c1C | inactive
CC(c1ccon1)N(C)Cc1cn(Cc2ccccc2)nc1-c1ccc2c(c1)OCO2 (stereo not drawn) | inconclusive: 2.24 µM [inhibitor, partial curve, poor fit]
CCOC(=O)C1CCCCN1Cc1cccc(Oc2ccccc2)c1 (stereo not drawn) | inconclusive: 22.4 µM [inhibitor, single point]
COc1ccc(Nc2nc3nonc3nc2N2CCCCC2)cc1 | inconclusive: 35.5 µM [inhibitor, single point]
CCOc1cc(CNCc2cccnc2)ccc1OCC(=O)NC(C)(C)C | inactive
CN(C)c1cccc2c1C(=O)c1ccccc1C2=O | inactive
O=C(CSc1ccccc1F)OCC(=O)N1CCN(C(=O)c2ccco2)CC1 | inconclusive: 4.47 µM [activator, single point]
CCn1c(C(=O)NCc2ccccc2Cl)cc2sc(Cl)cc21 | inconclusive: 35.5 µM [inhibitor, single point]

Rewritten with tabs: 21 of the compounds above
SMILES	Potency
CN1CCC(O)(c2cccs2)C(C(=O)c2cccs2)C1 (stereo not drawn)	inconclusive: 3.55 µM [inhibitor, full curve, poor fit]
Cn1c(-c2c(N)n(CCc3ccccc3)c3nc4ccccc4nc23)nc2ccccc21	inconclusive: 29.1 µM [inhibitor, single point]
O=C(NCc1cccc(Cl)c1)c1ccc(NC(=O)N2CCSc3ccccc32)cc1	inconclusive: 3.16 µM [activator, partial curve, poor fit]
Cc1cccc(OCC(=O)NC(=S)N2CCCc3ccccc32)c1	inactive
CCN1C(=NCc2ccc(OC)cc2)N[C@@H](CCc2ccccc2)[C@H](C(=O)NCc2ccc(OC)cc2)[C@H]1C	inconclusive: 0.0024 µM [activator, full curve, poor fit]
COc1ccc(C)cc1NC(=O)C(C)N(c1ccc(C)cc1)S(C)(=O)=O (stereo not drawn)	inactive
CCNC(=S)N1CCN(c2ccc([N+](=O)[O-])cc2)CC1	inactive
CCOC(=O)N1C(=O)NC(=O)C1c1ccccc1 (stereo not drawn)	inactive
Cc1nc(COC(=O)c2ccc(S(=O)(=O)N3CCCC3)cc2)cs1	inactive
Cc1ccccc1-c1nc2sc(-c3ccccc3)cc2c(=O)o1	inactive
COc1ccc(N2CCN(C(=O)c3cn(CC4CCCCC4)nn3)CC2)cc1	inconclusive: 2.51 µM [inhibitor, partial curve, poor fit]
COc1cccc(C(=O)N2CCN(C(=O)C3CCCO3)CC2)c1 (stereo not drawn)	inactive
CN(C)c1nc(SCc2ccc(Cl)cc2)nc2c1CCCC2	inactive
CCOC(=O)c1sc(NC(=O)CSc2nnc(-c3ccco3)n2CC)c(C(=O)OCC)c1C	inconclusive: 32.6 µM [inhibitor, single point]
NC(=O)CCN1CCN(CCOC2Cc3cc(Cl)ccc3Sc3ccccc32)CC1 (stereo not drawn)	inconclusive: 29.1 µM [inhibitor, single point]
Cc1ccc2c(C)c(C(=O)N3CCN(c4cnccn4)CC3)oc2c1C	inactive
CC(c1ccon1)N(C)Cc1cn(Cc2ccccc2)nc1-c1ccc2c(c1)OCO2 (stereo not drawn)	inconclusive: 2.24 µM [inhibitor, partial curve, poor fit]
CCOC(=O)C1CCCCN1Cc1cccc(Oc2ccccc2)c1 (stereo not drawn)	inconclusive: 22.4 µM [inhibitor, single point]
COc1ccc(Nc2nc3nonc3nc2N2CCCCC2)cc1	inconclusive: 35.5 µM [inhibitor, single point]
CCOc1cc(CNCc2cccnc2)ccc1OCC(=O)NC(C)(C)C	inactive
CN(C)c1cccc2c1C(=O)c1ccccc1C2=O	inactive

Next part.

SMILES | Potency
CSCCCNC(=O)c1ccccc1OC1CCN(S(C)(=O)=O)CC1 | inactive
Oc1cccc2c(NC(=S)Nc3ccc(OC(F)F)cc3)cccc12 | inconclusive: 12.6 µM [inhibitor, partial curve]
CC(C)(C)C(=O)Nc1ccc(-c2cn3cccnc3n2)cc1 | inconclusive: 3.16 µM [activator, partial curve, poor fit]
CC(Sc1nnc(-c2cccnc2)n1-c1ccccc1)C(=O)NCc1ccc2c(c1)OCO2 (stereo not drawn) | inactive
CCOC(=O)/C(C#N)=N/Nc1ccc(S(=O)(=O)N2CCc3ccccc32)cc1 | inconclusive: 20 µM [inhibitor, single point]
CC(C)N(Cc1nc(-c2ccc(Cl)cc2)no1)C(=O)C(c1ccccc1)c1ccccc1 | inconclusive: 25.9 µM [inhibitor, single point]
CN(CCC#N)Cc1cc(=O)oc2ccc3ccccc3c12 | inactive
c1ccc(Nc2nc3ccccc3[nH]2)nc1 | inactive
c1csc(CNc2ncnc3sccc23)c1 | inactive
C=CCOc1ccc(CN(C)CC(O)COc2cccc3ccccc23)cc1 (stereo not drawn) | inconclusive: 22.4 µM [inhibitor, single point]
Nc1ccc2c(c1)C(=NO)c1ccccc1-2 | inconclusive: 17.8 µM [activator, single point]
Cc1nn(-c2ccccc2)c2c1P(=O)(O)/C(=C1\N(C)c3ccccc3C1(C)C)C=N2 | inconclusive: 4.61 µM [inhibitor, full curve, poor fit]
COc1ccccc1CNC(=O)CN1C(=O)NC(C)(c2ccc(C(C)(C)C)cc2)C1=O (stereo not drawn) | inconclusive: 10 µM [inhibitor, partial curve]
Nc1c(C(=O)c2ccc(F)cc2)oc2ccccc12 | inactive
CC(C)c1ccccc1OCC(=O)Nc1nnc(C2CC2)s1 | inconclusive: 7.08 µM [inhibitor, partial curve, poor fit]
CSc1nnc(CSc2cc(C)nc(N(C)C)n2)o1 | inactive
Clc1ccc2nnnc(-c3ccccc3)c2c1 | active: 6.51 µM
COc1cc(/C=C2\SC(=S)N(CCC(=O)N3CCCCC3)C2=O)cc(OC)c1OC | inconclusive: 11.2 µM [inhibitor, partial curve]
COc1ccc(Cc2nnc(NC(=O)Nc3cccc(OC)c3)s2)cc1 | inactive
O=C(O)Cc1sc(-c2ccccc2)nc1-c1cccs1 | inconclusive: 28.2 µM [activator, single point]
CC(NC(=O)Nc1ccc2c(c1)OCO2)C1CCCO1 (stereo not drawn) | inactive
COC(=O)c1ccc2nc(C)cc(Nc3ccc(N(C)C)cc3)c2c1 | inconclusive: 2.06 µM [inhibitor, partial curve, poor fit]
CCC(Sc1nnc2c3ccccc3n(CC)c2n1)C(=O)Nc1sc2c(c1C#N)CCCC2 (stereo not drawn) | inconclusive: 5.62 µM [inhibitor, partial curve, poor fit]
